Source: the supplement of paper PMC10849652
The other results are listed elsewhere or left out.

Sequences of proteins named here, by UniProt entry; tags and fusion partners are left off. A change or cut given only in a name is not applied to a line headed by its entry.
UniProt Q9BTF0: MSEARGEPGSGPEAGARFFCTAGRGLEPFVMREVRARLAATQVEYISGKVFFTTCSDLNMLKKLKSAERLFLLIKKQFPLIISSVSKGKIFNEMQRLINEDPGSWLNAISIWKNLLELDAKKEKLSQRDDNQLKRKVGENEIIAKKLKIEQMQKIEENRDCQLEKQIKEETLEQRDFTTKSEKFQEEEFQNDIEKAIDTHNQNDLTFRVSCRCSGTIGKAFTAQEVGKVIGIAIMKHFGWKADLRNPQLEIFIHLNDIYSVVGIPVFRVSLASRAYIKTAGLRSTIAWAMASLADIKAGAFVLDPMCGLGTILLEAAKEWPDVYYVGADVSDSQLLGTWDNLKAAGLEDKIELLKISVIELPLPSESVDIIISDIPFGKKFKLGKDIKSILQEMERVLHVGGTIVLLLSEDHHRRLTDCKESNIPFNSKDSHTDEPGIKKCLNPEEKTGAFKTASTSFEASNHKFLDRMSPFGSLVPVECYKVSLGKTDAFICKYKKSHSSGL
UniProt Q9UM00: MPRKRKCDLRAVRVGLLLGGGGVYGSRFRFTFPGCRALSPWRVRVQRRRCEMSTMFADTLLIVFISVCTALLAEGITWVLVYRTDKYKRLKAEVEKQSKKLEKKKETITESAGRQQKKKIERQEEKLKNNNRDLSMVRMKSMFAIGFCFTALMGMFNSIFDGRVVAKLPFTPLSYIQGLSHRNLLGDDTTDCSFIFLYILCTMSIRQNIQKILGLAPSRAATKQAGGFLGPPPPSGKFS
UniProt Q969X1: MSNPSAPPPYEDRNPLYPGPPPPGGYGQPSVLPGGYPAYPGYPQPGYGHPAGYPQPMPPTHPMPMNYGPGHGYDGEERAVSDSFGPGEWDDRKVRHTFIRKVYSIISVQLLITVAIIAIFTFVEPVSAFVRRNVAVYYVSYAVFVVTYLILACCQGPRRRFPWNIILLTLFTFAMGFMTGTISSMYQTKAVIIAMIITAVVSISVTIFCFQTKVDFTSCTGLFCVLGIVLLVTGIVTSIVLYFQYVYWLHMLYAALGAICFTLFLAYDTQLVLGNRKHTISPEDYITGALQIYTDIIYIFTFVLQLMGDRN
UniProt O14925: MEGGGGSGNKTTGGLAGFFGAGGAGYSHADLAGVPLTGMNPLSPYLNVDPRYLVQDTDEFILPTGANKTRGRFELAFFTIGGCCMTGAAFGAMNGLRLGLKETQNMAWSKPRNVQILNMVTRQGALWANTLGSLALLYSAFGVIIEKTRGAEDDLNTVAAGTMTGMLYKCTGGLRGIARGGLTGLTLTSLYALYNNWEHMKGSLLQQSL
UniProt Q92544: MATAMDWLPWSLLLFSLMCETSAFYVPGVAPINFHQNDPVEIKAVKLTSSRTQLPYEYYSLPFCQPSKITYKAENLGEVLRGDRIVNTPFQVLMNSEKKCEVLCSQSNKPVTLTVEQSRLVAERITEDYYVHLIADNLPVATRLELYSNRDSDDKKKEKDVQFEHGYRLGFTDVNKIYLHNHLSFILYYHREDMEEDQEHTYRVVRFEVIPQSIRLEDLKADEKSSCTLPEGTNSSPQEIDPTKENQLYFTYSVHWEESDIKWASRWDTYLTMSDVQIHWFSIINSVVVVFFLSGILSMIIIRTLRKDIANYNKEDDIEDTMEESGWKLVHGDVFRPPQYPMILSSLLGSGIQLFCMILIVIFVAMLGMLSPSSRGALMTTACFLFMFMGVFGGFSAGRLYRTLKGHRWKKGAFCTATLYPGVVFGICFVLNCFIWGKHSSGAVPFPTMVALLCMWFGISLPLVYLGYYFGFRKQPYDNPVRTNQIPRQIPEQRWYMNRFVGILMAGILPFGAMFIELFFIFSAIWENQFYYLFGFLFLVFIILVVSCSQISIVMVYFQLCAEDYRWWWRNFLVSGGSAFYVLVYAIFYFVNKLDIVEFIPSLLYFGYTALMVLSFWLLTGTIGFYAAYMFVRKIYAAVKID
UniProt Q5U3C3: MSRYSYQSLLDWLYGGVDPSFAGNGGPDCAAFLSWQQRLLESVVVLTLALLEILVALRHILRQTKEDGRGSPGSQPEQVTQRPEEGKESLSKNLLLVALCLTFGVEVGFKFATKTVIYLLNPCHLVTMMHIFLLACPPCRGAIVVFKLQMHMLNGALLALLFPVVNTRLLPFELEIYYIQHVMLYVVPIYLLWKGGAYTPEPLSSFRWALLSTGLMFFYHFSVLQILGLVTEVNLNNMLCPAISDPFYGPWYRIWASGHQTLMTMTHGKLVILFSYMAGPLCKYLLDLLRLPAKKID
UniProt P55061, whole entry, looked up: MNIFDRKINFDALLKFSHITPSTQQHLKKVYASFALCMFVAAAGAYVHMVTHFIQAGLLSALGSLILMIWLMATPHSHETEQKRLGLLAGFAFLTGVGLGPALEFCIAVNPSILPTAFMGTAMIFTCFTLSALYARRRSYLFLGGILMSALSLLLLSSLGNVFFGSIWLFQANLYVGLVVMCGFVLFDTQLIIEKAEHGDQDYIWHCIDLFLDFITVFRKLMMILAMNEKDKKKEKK
UniProt Q9BVC6: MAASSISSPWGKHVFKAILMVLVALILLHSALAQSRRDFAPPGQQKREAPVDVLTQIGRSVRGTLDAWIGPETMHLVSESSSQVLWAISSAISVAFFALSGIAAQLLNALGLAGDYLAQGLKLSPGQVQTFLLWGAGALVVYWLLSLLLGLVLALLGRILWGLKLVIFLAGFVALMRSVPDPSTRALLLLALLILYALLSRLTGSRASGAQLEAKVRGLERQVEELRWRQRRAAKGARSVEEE
UniProt Q04727: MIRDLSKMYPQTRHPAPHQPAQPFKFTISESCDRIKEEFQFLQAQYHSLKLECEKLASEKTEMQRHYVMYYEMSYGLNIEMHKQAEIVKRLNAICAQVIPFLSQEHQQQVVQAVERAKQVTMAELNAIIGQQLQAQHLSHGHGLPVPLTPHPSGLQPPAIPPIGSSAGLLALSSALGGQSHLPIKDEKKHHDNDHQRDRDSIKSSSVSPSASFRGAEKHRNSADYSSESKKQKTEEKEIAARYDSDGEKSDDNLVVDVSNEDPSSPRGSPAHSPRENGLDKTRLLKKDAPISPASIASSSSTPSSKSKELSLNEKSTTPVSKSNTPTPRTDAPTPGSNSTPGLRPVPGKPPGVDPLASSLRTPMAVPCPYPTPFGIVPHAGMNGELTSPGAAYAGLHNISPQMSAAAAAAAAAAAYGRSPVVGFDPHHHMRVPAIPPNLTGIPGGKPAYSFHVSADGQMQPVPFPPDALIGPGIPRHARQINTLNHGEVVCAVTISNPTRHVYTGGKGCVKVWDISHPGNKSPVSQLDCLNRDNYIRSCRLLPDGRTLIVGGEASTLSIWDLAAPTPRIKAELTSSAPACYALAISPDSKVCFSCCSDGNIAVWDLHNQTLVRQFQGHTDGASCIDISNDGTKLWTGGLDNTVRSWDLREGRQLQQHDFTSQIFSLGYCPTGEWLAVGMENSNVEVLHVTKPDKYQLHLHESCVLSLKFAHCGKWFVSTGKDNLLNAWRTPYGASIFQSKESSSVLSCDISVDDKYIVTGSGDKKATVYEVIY
UniProt Q9BSF4: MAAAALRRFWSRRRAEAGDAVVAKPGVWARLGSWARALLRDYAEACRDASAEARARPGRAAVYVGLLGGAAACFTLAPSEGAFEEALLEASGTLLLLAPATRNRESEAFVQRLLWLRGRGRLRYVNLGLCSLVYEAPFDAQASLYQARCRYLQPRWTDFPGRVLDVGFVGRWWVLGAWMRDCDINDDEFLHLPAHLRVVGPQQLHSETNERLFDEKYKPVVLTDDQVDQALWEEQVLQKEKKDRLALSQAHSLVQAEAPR
UniProt Q9Y3A6: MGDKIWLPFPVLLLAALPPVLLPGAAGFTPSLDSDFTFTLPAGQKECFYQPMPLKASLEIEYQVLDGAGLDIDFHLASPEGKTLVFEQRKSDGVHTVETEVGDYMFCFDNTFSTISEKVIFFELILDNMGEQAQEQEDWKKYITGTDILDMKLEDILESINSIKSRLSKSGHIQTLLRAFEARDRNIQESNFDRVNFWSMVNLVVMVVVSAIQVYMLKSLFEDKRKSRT
UniProt Q9Y2S6, whole entry, looked up: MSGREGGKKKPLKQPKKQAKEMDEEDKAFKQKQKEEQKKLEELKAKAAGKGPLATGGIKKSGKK
UniProt Q9Y584: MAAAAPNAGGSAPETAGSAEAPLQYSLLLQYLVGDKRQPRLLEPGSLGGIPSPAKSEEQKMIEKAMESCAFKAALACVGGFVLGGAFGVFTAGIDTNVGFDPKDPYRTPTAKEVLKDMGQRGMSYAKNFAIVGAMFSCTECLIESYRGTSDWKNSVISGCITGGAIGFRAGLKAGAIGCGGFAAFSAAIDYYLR
UniProt Q9NX61: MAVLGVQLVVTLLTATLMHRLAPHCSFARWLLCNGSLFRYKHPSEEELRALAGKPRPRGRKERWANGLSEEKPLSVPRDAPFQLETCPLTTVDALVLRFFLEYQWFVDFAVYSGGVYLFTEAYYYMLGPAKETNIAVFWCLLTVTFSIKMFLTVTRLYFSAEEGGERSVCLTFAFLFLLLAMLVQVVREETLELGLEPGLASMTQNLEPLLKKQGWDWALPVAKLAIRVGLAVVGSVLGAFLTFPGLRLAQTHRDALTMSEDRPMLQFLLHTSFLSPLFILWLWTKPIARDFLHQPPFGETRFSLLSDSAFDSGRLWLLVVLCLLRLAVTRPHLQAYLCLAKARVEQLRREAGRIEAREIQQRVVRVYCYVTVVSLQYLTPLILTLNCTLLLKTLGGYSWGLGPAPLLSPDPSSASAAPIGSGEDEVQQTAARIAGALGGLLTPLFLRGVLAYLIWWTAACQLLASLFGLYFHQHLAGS
UniProt Q5T1C6: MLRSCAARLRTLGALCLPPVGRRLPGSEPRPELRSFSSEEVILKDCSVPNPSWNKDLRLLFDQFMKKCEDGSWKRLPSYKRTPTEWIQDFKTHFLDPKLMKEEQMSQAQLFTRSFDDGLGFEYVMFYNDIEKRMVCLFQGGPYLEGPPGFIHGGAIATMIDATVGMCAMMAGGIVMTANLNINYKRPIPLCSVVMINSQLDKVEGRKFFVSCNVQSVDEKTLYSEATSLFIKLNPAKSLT
UniProt O75663: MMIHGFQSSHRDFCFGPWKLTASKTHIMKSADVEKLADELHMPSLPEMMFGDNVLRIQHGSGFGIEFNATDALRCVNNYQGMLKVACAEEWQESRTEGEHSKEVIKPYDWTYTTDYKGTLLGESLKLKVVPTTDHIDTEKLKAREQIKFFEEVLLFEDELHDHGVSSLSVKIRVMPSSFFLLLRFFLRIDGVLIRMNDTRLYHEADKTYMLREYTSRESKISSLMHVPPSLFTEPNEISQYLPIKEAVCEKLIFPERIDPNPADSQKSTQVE
UniProt Q99595: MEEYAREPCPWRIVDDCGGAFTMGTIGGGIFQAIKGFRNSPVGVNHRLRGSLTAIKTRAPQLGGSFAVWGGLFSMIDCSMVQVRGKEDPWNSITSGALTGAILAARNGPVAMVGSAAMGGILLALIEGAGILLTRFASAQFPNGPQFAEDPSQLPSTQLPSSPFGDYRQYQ
UniProt O60830: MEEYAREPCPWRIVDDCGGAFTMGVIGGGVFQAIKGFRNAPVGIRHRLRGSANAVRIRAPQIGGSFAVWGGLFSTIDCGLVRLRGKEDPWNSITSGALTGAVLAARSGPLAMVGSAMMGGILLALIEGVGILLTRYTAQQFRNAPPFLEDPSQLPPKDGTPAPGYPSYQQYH
UniProt Q3ZCQ8: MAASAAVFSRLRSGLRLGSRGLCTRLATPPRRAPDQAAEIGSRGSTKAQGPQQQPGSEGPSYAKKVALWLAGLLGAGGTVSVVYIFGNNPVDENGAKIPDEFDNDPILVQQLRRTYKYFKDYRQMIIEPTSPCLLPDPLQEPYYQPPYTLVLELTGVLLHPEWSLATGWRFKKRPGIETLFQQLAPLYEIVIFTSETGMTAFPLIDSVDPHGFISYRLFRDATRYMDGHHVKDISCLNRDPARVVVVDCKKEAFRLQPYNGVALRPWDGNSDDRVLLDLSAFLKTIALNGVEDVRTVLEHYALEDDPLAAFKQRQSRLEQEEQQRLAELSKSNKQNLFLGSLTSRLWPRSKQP
UniProt Q6PL24: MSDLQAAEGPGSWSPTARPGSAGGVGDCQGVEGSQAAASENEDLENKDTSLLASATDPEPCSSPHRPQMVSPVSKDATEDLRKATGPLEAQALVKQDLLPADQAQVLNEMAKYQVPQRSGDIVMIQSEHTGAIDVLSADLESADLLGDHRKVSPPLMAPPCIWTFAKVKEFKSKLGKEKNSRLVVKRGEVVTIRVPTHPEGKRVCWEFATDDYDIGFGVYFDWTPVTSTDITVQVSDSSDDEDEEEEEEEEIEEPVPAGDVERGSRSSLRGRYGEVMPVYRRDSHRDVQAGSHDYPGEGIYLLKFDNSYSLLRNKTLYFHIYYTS
UniProt Q01085: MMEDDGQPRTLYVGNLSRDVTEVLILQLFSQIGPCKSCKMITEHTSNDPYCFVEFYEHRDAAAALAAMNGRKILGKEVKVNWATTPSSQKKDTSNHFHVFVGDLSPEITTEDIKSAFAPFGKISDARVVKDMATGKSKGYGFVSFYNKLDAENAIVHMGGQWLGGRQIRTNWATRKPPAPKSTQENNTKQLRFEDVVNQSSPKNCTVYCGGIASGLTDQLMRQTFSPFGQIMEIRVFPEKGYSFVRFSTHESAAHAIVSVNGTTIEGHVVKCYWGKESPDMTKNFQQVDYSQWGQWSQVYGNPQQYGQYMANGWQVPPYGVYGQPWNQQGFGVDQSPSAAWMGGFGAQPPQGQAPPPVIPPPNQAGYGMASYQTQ

Compound: Cc1ccc(-n2nc(C(C)(C)C)cc2NC(=O)Nc2ccc(OCCN3CCOCC3)c3ccccc23)cc1 [doramapimod]
Experiment: log2 fold change, soluble protein after heating vs DMSO (PISA); higher = thermal stabilisation; K562 lysate, 10 uM; active = over 0.2 and 3.5 SD of the protein, either way, in both replicates (recomputed)
Procedure, shortened: (§1)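 K562 pellets were dounce-homogenised in PBS pH 7.4 containing 1 mM MgCl2, and the crude extract, at 1 mg/mL protein, was exposed to 10 μM compound for 30 min. Aliquots were heated for 3 min across 48°C-58°C, pooled, brought to 0.5% NP-40 at 4°C and spun at 21,000xg for 90 min, with the supernatant taken as soluble protein. TMTpro 16plex LC-MS/MS with equalised channel sums quantified that protein. Values are log-two fold changes in thermal stability relative to solvent controls, taken from duplicates.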

Target	log2 fold change
TICAM2 isoform 2 (UniProt Q86XR7)	inactive: -0.041
THUMPD2 (UniProt Q9BTF0)	inactive: -0.006
TMCO1 (UniProt Q9UM00)	inactive: -0.018
TGOLN2 isoform 7 (UniProt O43493)	inactive: -0.03
TMBIM1 (UniProt Q969X1)	inactive: 0.04
TMEM120A (UniProt Q9BXJ8)	inactive: -0.022
TIMMDC1 (UniProt Q9NPL8)	inactive: -0.027
TIMM23 (UniProt O14925)	inactive: 0.003
TJP2 isoform 7 (UniProt Q9UDY2)	inactive: 0.049
TMEM185B (UniProt Q9H7F4)	inactive: 0.01
TM9SF4 (UniProt Q92544)	inactive: 0.019
TMEM168 (UniProt Q9H0V1)	inactive: 0.025
TMEM164 (UniProt Q5U3C3)	inactive: -0.173
THYN1 (UniProt Q9P016)	inactive: 0.002
THNSL1 (UniProt Q8IYQ7)	inactive: -0.003
TMBIM6 isoform 2 (UniProt P55061)	inactive: -0.056
THOP1 (UniProt P52888)	inactive: 0.015
TMCO6 isoform 2 (UniProt Q96DC7)	inactive: 0.009
TMEM109 (UniProt Q9BVC6)	inactive: 0.014
THOC5 (UniProt Q13769)	inactive: 0.02

Target	log2 fold change
THOC1 (UniProt Q96FV9)	inactive: 0.025
TLE4 isoform 3 (UniProt Q04727)	inactive: 0.016
TGS1 (UniProt Q96RS0)	inactive: 0.021
TIMM29 (UniProt Q9BSF4)	inactive: -0.009
TLN2 (UniProt Q9Y4G6)	inactive: 0.033
TMEM126A (UniProt Q9H061)	inactive: -0.073
TMED5 (UniProt Q9Y3A6)	inactive: -0.055
TMA7 (UniProt Q9Y2S6)	inactive: -0.126
TIMM22 (UniProt Q9Y584)	inactive: -0.038
TMEM161A (UniProt Q9NX61)	inactive: -0.015
TIMM44 (UniProt O43615)	inactive: 0.058
THEM4 (UniProt Q5T1C6)	inactive: 0.036
TMED10 (UniProt P49755)	inactive: -0.03
TMA16 (UniProt Q96EY4)	inactive: 0.016
TIPRL (UniProt O75663)	inactive: -0.001
TIMM17A (UniProt Q99595)	inactive: -0.025
TIMM17B (UniProt O60830)	inactive: -0.01
TIMM50 isoform 2 (UniProt Q3ZCQ8)	inactive: 0.024
TMED8 (UniProt Q6PL24)	inactive: 0.026
TIAL1 isoform 2 (UniProt Q01085)	inactive: 0.007

Compound: Cc1ccc(NC(=O)c2ccc(CN3CC[C@H](N(C)C)C3)c(C(F)(F)F)c2)cc1Nc1nccc(-c2cncnc2)n1 [bafetinib]
Experiment: as above
Procedure, shortened: as §1

Target	log2 fold change
TICAM2 isoform 2 (UniProt Q86XR7)	inactive: -0.049
THUMPD2 (UniProt Q9BTF0)	inactive: -0.035
TMCO1 (UniProt Q9UM00)	inactive: -0.059
TGOLN2 isoform 7 (UniProt O43493)	inactive: 0.032
TMBIM1 (UniProt Q969X1)	inactive: -0.044
TMEM120A (UniProt Q9BXJ8)	inactive: -0.054
TIMMDC1 (UniProt Q9NPL8)	inactive: -0.046
TIMM23 (UniProt O14925)	inactive: -0.006
TJP2 isoform 7 (UniProt Q9UDY2)	inactive: -0.055
TMEM185B (UniProt Q9H7F4)	inactive: 0.017
TM9SF4 (UniProt Q92544)	inactive: -0.055
TMEM168 (UniProt Q9H0V1)	inactive: -0.009
TMEM164 (UniProt Q5U3C3)	inactive: -0.05
THYN1 (UniProt Q9P016)	inactive: 0.016
THNSL1 (UniProt Q8IYQ7)	inactive: 0.013
TMBIM6 isoform 2 (UniProt P55061)	inactive: -0.042
THOP1 (UniProt P52888)	inactive: -0.006
TMCO6 isoform 2 (UniProt Q96DC7)	inactive: -0.06
TMEM109 (UniProt Q9BVC6)	inactive: 0.011
THOC5 (UniProt Q13769)	inactive: -0.009

Target	log2 fold change
THOC1 (UniProt Q96FV9)	inactive: -0.006
TLE4 isoform 3 (UniProt Q04727)	inactive: -0.051
TGS1 (UniProt Q96RS0)	inactive: -0.033
TIMM29 (UniProt Q9BSF4)	inactive: -0.032
TLN2 (UniProt Q9Y4G6)	inactive: -0.042
TMEM126A (UniProt Q9H061)	inactive: -0.033
TMED5 (UniProt Q9Y3A6)	inactive: -0.017
TMA7 (UniProt Q9Y2S6)	inactive: -0.014
TIMM22 (UniProt Q9Y584)	inactive: 0.021
TMEM161A (UniProt Q9NX61)	inactive: 0.064
TIMM44 (UniProt O43615)	inactive: -0.067
THEM4 (UniProt Q5T1C6)	inactive: 0.011
TMED10 (UniProt P49755)	inactive: 0.071
TMA16 (UniProt Q96EY4)	inactive: -0.051
TIPRL (UniProt O75663)	inactive: 0.03
TIMM17A (UniProt Q99595)	inactive: -0.019
TIMM17B (UniProt O60830)	inactive: 0
TIMM50 isoform 2 (UniProt Q3ZCQ8)	inactive: 0.041
TMED8 (UniProt Q6PL24)	inactive: -0.063
TIAL1 isoform 2 (UniProt Q01085)	inactive: 0
